Results are given in words; binding and its absence hold for the method and conditions named. In cells and extracts the contact can be indirect. Some binding calls cover weakened binding; strength is not graded here.
Biological target: toll-like receptor 4 (human (endogenous in primary osteoarthritic chondrocytes)) (UniProt O00206)
Assay: co-IP; RIPA lysate of human primary osteoarthritic chondrocytes (control, 500 uM palmitate (PA), or PA after Ssn B pretreatment); anti-TLR4 antibody 1 h, magnetic beads at 4 °C overnight, four washes with ice-cold PBS; MD-2 detected by western blot

Protein sequences, listed by entry. Tags and fused reporters are not part of them. Residues count along the entry.
UniProt O00206, residues 24-839: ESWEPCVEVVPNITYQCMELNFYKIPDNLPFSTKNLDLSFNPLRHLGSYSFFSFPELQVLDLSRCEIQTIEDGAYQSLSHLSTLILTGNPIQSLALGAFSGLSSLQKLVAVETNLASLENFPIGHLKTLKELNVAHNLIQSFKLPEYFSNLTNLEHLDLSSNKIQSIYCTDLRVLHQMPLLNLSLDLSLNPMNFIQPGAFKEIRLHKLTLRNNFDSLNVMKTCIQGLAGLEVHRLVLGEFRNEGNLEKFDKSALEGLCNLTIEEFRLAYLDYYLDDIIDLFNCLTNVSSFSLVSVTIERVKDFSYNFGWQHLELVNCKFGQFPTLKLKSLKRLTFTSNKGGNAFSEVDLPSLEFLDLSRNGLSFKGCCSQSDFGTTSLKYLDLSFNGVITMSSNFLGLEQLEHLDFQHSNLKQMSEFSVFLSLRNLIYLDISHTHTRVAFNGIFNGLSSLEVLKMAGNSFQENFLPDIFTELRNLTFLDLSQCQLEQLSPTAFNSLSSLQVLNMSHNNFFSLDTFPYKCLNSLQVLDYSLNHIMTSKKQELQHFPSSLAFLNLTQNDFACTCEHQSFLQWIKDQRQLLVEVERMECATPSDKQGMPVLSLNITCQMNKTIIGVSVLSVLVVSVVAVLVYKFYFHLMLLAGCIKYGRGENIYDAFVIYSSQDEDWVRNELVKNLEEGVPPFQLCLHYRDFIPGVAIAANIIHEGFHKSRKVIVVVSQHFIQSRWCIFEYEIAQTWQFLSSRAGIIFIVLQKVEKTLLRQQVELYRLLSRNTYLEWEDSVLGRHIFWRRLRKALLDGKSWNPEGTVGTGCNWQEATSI

B1: myeloid differentiation protein-2 (protein, UniProt Q9Y6Y9 19-160)
chain: QKQYWVCNSSDASISYTYCDKMQYPISINVNPCIELKRSKGLLHIFYIPRRDLKQLYFNLYITVNTMNLPKRKEVICRGSDDDYSFCRALKGETVNTTISFSFKGIKFSKGKYKCVVEAISGSPEEMLFCLEFVILHQPNSN
With B1 the binding was “binds”.

From paper PMC8817118
